In article PMC8324300:
No constants are given. Whether binding was seen depends on the method and setting.

Target: recombinant CHMP7 (full length, wild type) (human) (UniProt Q8WUX9)
Experiment: negative stain electron microscopy; each recombinant protein (LEM2^CT, CHMP7 or CHMP7 S3D/S441D) incubated alone; polymerisation scored; both purified

B1: recombinant CHMP7 (full length, wild type) (protein, UniProt Q8WUX9 1-453)
chain: MWSPEREAEAPAGGDPAGLLPPEWEEDEERMSFLFSAFKRSREVNSTDWDSKMGFWAPLVLSHSRRQGVVRLRLRDLQEAFQRKGSVPLGLATVLQDLLRRGELQRESDFMASVDSSWISWGVGVFLLKPLKWTLSNMLGDNKVPAEEVLVAVELLKEKAEEVYRLYQNSPLSSHPVVALSELSTLCANSCPDERTFYLVLLQLQKEKRVTVLEQNGEKIVKFARGPRAKVSPVNDVDVGVYQLMQSEQLLSRKVESLSQEAERCKEEARRACRAGKKQLALRSLKAKQRTEKRIEALHAKLDTVQGILDRIYASQTDQMVFNAYQAGVGALKLSMKDVTVEKAESLVDQIQELCDTQDEVSQTLAGGVTNGLDFDSEELEKELDILLQDTTKEPLDLPDNPRNRHFTNSVPNPRISDAELEAELEKLSLSEGGLVPSSKSPKRQLEPTLKPL
- binding: no binding (condition: incubated alone, without LEM2^CT)
